Assay results: PubChem BioAssay AID493014 (National Center for Advancing Translational Sciences (NCATS), 2011)
Some of the results follow. Shown are side measurements of this screen, not its main read-out; they come without a call. Compounds called inactive in the main read-out are mostly missing here. Words in brackets tell the shape of the fitted curve; partial curves, single points and poor fits give uncertain potencies.

Test: qHTS Assay to Find Inhibitors of Chronic Active B-Cell Receptor Signaling
Settings: ABC-DLBCL IkBa-CBG/CBR reporter, luminescence ratio (green luciferase fused to IkBa over red control in TMD8 lymphoma cells), 4 h
Method in brief: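 TMD8 ABC-DLBCL cells carrying doxycycline-inducible green luciferase fused to IkappaBalpha plus unfused red luciferase were exposed to compounds (up to 46 uM) for 4 hrs at 37C. Activity came from the overlap-corrected green/red luminescence ratio.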

[1] = measured here: CBR red luminescence, cell number

Compound	AC50 [1]	AC50 (measured here: IkBa-CBG green luminescence)
COc1ccc(-c2cc(C(=O)N3CCN(c4ccccc4)CC3)no2)cc1	12.6 µM [falling, partial curve]	–
CCOC(=O)C1=C(C2=CCCCC2)c2ccc(OC)cc2N(S(=O)(=O)C(F)(F)F)C1C(=O)OCC (configuration not stated)	–	23.1 µM [falling, partial curve, poor fit]
Cc1ccc(S(=O)(=O)CC#CCOC(=O)c2ccc([N+](=O)[O-])cc2)cc1	35.5 µM [falling, partial curve, poor fit]	–
Cc1cc(C)c(C#N)c(N2CCN(C(=O)C3COc4ccccc4O3)CC2)n1 (configuration not stated)	0.206 µM [rising, full curve, poor fit]	–
Cn1cccc1C(=O)C(=O)Nc1ccccc1C(F)(F)F	5.01 µM [rising, full curve, poor fit]	–
CCn1c(SCC(=O)NCc2ccco2)nc2ccccc2c1=O	17.8 µM [falling, partial curve, poor fit]	–
Nc1ccccc1SCc1ccccc1Cl	7.94 µM [rising, partial curve, poor fit]	–
O=C(COc1cccc(Cl)c1)NCC(c1cccs1)N1CCOCC1 (configuration not stated)	29.1 µM [falling, single point]	–
O=C(Nc1cccc(F)c1)c1c(O)c2cccc3c2n(c1=O)CCC3	0.447 µM [rising, full curve, poor fit]	–
Cc1cc(=O)oc(C)c1C(=O)Nc1cccc2nonc12	3.16 µM [rising, full curve, poor fit]	–
COC(=O)c1ccsc1NC(=O)CN1CCN(c2ccc(F)cc2)CC1	5.8 µM [falling, partial curve, poor fit]	–
COc1ccc(CCC(=O)Nc2sc(C(=O)N(C)C)c(C)c2C#N)cc1	6.31 µM [rising, single point]	–
O=c1cc(NCCc2ccccc2)c2ccccc2o1	11.2 µM [falling, single point]	–
COc1cc2ccccc2cc1C(=O)NC(=S)Nc1ccc(C(=O)O)cc1	0.355 µM [falling, full curve, poor fit]	–
Cn1c(=O)c2c(nc(Cc3ccc(N)cc3)n2C)n(C)c1=O	5.62 µM [falling, partial curve, poor fit]	–
COc1ccc(S(=O)(=O)N2CCCN(S(=O)(=O)c3ccc(OC)c(C)c3)CC2)cc1C	1.64 µM [rising, partial curve]	–
CCCc1cc(-c2nc(N)ncc2-c2ccc3c(c2)OCCCO3)c(O)cc1OC	29.1 µM [falling, single point]	–
Nc1ncnc2c1ncn2[C@@H]1O[C@H](CNC(=O)[C@@H](N)CO)[C@@H](O)[C@H]1O	29.1 µM [rising, single point]	–
CC(C)C(NS(=O)(=O)c1cccc(C(F)(F)F)c1)C(=O)N1CCc2ccccc2C1 (configuration not stated)	11.2 µM [falling, single point]	–
CC(=O)c1ccc(NC(=S)NCc2cccnc2)cc1	2.24 µM [rising, partial curve, poor fit]	–
CCc1cc2c(CN(C)Cc3ccccc3F)cc(=O)oc2cc1O	12.6 µM [rising, single point]	–

Compound	AC50 [1]	AC50 (measured here: IkBa-CBG green luminescence)
O=C(CSc1nc(-c2ccccc2)cs1)N1CCN(C(=O)c2ccco2)CC1	6.51 µM [rising, single point]	–
C[C@H](CO)N1C[C@H](C)[C@@H](CN(C)S(=O)(=O)c2cn(C)cn2)Oc2c(NS(=O)(=O)c3cccs3)cccc2C1=O	23.1 µM [rising, single point]	–
O=C(c1cccn2c(=O)c3cc(Cl)ccc3nc12)N1CCOCC1	29.1 µM [rising, single point]	–
Cc1ccc(NC(=O)c2ccc3c(c2)OCO3)cc1Cl	35.5 µM [falling, partial curve, poor fit]	–
COc1cccc(NC(=O)C(=O)N2CCOCC2)c1	9.2 µM [falling, partial curve]	–
O=C(Nc1cccc(NC(=O)c2ccco2)c1)c1cccc(Br)c1	20 µM [falling, partial curve, poor fit]	–
COc1cc(NC(=O)c2ccc([N+](=O)[O-])cc2)ccc1NC(=O)C(C)C	3.55 µM [rising, partial curve, poor fit]	–
O=C(CCC(=O)Nc1ccc(Br)cc1)N/N=C/c1ccccc1O	5.01 µM [rising, partial curve, poor fit]	–
CCOc1ccc(NC(=O)C2CCCN(C(=O)NCc3ccccc3)C2)cc1 (configuration not stated)	25.9 µM [falling, single point]	–
C=CCN1C(=O)NC(c2ccccc2)(C(F)(F)F)S/C1=C(\C#N)c1nnc(N2CCOCC2)n1-c1ccccc1 (configuration not stated)	16.4 µM [falling, partial curve]	–
O=C(CSc1ccccn1)N1CCc2ccccc21	20 µM [falling, single point]	–
CN1CCN(C(=O)CCNC(=O)Cn2ccc3ccccc3c2=O)CC1	29.1 µM [falling, single point]	–
Cc1sc2nc(CN3CCOCC3)nc(N3CCOCC3)c2c1C	6.51 µM [falling, single point]	–
Cc1ccsc1C(=O)OCC(=O)Nc1cccc(S(=O)(=O)NC2=NCCCCC2)c1	20 µM [falling, single point]	–
CC(C)CCNC(=O)c1onc(CSc2ccc(Cl)cc2)c1C(=O)NCCC(C)C	5.62 µM [falling, single point]	–
O=C(Cc1cccs1)N/N=C/C(Br)=C/c1ccccc1	10 µM [rising, partial curve]	–
O=C(c1cccc(C(F)(F)F)c1)C1CCCN(Cc2cccn2-c2ccccn2)C1 (configuration not stated)	14.1 µM [falling, single point]	–
Cc1cc(C)c(C(=O)C2OC(=O)C(C)(C)C(=O)C2(C)C)c(C)c1 (configuration not stated)	5.17 µM [rising, partial curve, poor fit]	–
COc1ccc(/C=N/NC(=O)c2ccoc2C)cc1O	20.6 µM [falling, partial curve, poor fit]	–
CC(C)(C)OC(=O)NN1CC(=O)N2Cc3ccccc3C[C@@H]2C1=O	3.98 µM [rising, partial curve, poor fit]	–
O=C(Nc1ccc(-c2csc(Nc3ccc(Cl)cc3)n2)cc1)c1cc([N+](=O)[O-])cc(C(F)(F)F)c1	14.1 µM [rising, partial curve, poor fit]	–

Compound	AC50 [1]	AC50 (measured here: IkBa-CBG green luminescence)
O=C(Nc1cc(Cl)cc(Cl)c1)C(NCC1CCCO1)c1ccccc1 (configuration not stated)	29.1 µM [falling, single point]	–
COc1ccc(/C=C2\SC(=S)N(CCC(=O)N3CCCCC3CCO)C2=O)cc1 (configuration not stated)	2 µM [falling, full curve]	–
COc1ccc(C2CC(c3ccccc3)=NN2S(=O)(=O)c2ccccc2)cc1 (configuration not stated)	11.2 µM [rising, partial curve, poor fit]	–
Cc1ccc2nc(-c3cccc(NS(C)(=O)=O)c3)cc(-c3ccccc3)c2c1	23.1 µM [falling, single point]	–
CC1CCN(CCC(=O)N/N=C/c2ccc([N+](=O)[O-])cc2)CC1	2.82 µM [falling, partial curve, poor fit]	–
Cn1c(=O)n(C)c2cc(/C=N/NC(=O)c3cc4cc(Br)ccc4o3)ccc21	1.26 µM [falling, full curve, poor fit]	–
Cc1ccc(-c2nnc(Nc3ccc4c(c3)OCO4)c3ccccc23)cc1S(N)(=O)=O	11.6 µM [falling, partial curve, poor fit]	–
O=C(O)CS(=O)CC(=O)Nc1cccc(C(F)(F)F)c1 (configuration not stated)	31.6 µM [falling, single point]	–
COc1ccc(C(=O)NC2CCCCCC2)cc1OC1CCN(C(C)=O)CC1	35.5 µM [falling, partial curve, poor fit]	–
N#Cc1c(N)n(CCOC(=O)c2ccc(Cl)cc2)c2nc3ccccc3nc12	4.11 µM [falling, single point]	–
c1ccc(-n2ncc3c2ncn2cnnc32)cc1	17.8 µM [falling, partial curve, poor fit]	–
Cc1ccc2oc(=O)c3cnn(CC(=O)NCCN4CCOCC4)c3c2c1	32.6 µM [rising, partial curve, poor fit]	–
O=C(O)c1cccc(N2C(=O)/C(=C/c3ccc([N+](=O)[O-])cc3)C=C2c2ccccc2)c1	1.26 µM [falling, full curve]	–
COc1ccc(C(=O)Nc2ncc(C)s2)cc1S(=O)(=O)N1CCOCC1	23.1 µM [falling, single point]	–
O=C(Nc1ncc(Cc2ccccc2)s1)c1cccs1	35.5 µM [falling, single point]	–
COc1ccc(S(=O)(=O)Nc2cccc3c2O[C@H](CN(C)Cc2ccc(Cl)c(Cl)c2)[C@@H](C)CN([C@H](C)CO)C3=O)cc1	18.4 µM [falling, single point]	–
CCOC(=O)c1cnc(-n2nc(C)cc2C)nc1NC1CCCC1	35.5 µM [falling, single point]	–
c1ccc2c(c1)Sc1ccccc1-n1cnnc1-2	1.16 µM [rising, full curve]	–
O=C(COC(=O)c1cccc(S(=O)(=O)N2CCN(c3ccccc3)CC2)c1)NCc1ccco1	35.5 µM [rising, partial curve, poor fit]	–
CCN(CC)c1nc(N)c2c(N)nc3c(c2c1C#N)CC(c1ccccc1)O3 (configuration not stated)	25.9 µM [falling, partial curve, poor fit]	–

An excerpt from above in order of molar mass, low to high.
Compound	AC50 [1]	AC50 (measured here: IkBa-CBG green luminescence)
CCOC(=O)c1cnc(-n2nc(C)cc2C)nc1NC1CCCC1	35.5 µM [falling, single point]	–
Cc1ccc2nc(-c3cccc(NS(C)(=O)=O)c3)cc(-c3ccccc3)c2c1	23.1 µM [falling, single point]	–
COc1ccc(S(=O)(=O)Nc2cccc3c2O[C@H](CN(C)Cc2ccc(Cl)c(Cl)c2)[C@@H](C)CN([C@H](C)CO)C3=O)cc1	18.4 µM [falling, single point]	–
